Drawing on patent publication US12055536B2, “Device for detection of cellular stress” (Trustees of Boston University, priority 2021, dated 2024), this text covers IC50 for 1 compound.

Each structure is given as a SMILES string.

The assay has as its system SKOV3 cells. Put plainly: Cell viability assay (dose-response). To be noted: read-out: IC50 for cisplatin. The format is cell-based, human. On the procedure: Cell viability was measured by MTS assay (Abcam, #ab197010) or by CellTiter-Glo™ assay (Promega, #G7570). Cells were seeded at 96-well plates at densities of 2000˜5000 cells per well overnight. Treatment was added to the cells at indicated concentrations for 72 h. Cell viability was measured by incubating with MTS reagent for 4 h and reading absorbance at 490 nm or incubating with CellTier-Glo™ reagent for 10 min and reading luminescence by a plate reader. Six replicates were used for each group.
In addition, isogenic PEO1/PEO4 cell lines derived from the same patient were studied, at the time of a platinum sensitive (PEO1) and platinum resistant-recurrence (PEO4).
Having shown decreased glucose-derived anabolism and increased fatty acid uptake in cisplatin-resistant ovarian cancer cells, whether this metabolic feature can be used for differentiation of cisplatin-resistant from cisplatin-sensitive cancer cells was explored. […] In Table 2 below, quantitation of glucose-d7 (G-d7), PA-d31, and OA-d34 are shown as area fraction of C-D signal out of total cellular area, in mean values.

With `N.N.[Cl][Pt][Cl]` [cisplatin], the IC50 amounted to 10.1 µM.
